Reference: the supplement of paper PMC12819154, “High-throughput peptide-centric local stability assay extends protein–ligand identification to membrane proteins, tissues and bacteria” (Nature Structural & Molecular Biology, 2025)
The list shows a part of the results. Most entries show no effect beyond the scatter of the controls.

Chains of the proteins cited; added tags and fusions are not shown. Lines headed by an entry give the natural chain unless they say otherwise; changes in a name come on top.
UniProt O75970: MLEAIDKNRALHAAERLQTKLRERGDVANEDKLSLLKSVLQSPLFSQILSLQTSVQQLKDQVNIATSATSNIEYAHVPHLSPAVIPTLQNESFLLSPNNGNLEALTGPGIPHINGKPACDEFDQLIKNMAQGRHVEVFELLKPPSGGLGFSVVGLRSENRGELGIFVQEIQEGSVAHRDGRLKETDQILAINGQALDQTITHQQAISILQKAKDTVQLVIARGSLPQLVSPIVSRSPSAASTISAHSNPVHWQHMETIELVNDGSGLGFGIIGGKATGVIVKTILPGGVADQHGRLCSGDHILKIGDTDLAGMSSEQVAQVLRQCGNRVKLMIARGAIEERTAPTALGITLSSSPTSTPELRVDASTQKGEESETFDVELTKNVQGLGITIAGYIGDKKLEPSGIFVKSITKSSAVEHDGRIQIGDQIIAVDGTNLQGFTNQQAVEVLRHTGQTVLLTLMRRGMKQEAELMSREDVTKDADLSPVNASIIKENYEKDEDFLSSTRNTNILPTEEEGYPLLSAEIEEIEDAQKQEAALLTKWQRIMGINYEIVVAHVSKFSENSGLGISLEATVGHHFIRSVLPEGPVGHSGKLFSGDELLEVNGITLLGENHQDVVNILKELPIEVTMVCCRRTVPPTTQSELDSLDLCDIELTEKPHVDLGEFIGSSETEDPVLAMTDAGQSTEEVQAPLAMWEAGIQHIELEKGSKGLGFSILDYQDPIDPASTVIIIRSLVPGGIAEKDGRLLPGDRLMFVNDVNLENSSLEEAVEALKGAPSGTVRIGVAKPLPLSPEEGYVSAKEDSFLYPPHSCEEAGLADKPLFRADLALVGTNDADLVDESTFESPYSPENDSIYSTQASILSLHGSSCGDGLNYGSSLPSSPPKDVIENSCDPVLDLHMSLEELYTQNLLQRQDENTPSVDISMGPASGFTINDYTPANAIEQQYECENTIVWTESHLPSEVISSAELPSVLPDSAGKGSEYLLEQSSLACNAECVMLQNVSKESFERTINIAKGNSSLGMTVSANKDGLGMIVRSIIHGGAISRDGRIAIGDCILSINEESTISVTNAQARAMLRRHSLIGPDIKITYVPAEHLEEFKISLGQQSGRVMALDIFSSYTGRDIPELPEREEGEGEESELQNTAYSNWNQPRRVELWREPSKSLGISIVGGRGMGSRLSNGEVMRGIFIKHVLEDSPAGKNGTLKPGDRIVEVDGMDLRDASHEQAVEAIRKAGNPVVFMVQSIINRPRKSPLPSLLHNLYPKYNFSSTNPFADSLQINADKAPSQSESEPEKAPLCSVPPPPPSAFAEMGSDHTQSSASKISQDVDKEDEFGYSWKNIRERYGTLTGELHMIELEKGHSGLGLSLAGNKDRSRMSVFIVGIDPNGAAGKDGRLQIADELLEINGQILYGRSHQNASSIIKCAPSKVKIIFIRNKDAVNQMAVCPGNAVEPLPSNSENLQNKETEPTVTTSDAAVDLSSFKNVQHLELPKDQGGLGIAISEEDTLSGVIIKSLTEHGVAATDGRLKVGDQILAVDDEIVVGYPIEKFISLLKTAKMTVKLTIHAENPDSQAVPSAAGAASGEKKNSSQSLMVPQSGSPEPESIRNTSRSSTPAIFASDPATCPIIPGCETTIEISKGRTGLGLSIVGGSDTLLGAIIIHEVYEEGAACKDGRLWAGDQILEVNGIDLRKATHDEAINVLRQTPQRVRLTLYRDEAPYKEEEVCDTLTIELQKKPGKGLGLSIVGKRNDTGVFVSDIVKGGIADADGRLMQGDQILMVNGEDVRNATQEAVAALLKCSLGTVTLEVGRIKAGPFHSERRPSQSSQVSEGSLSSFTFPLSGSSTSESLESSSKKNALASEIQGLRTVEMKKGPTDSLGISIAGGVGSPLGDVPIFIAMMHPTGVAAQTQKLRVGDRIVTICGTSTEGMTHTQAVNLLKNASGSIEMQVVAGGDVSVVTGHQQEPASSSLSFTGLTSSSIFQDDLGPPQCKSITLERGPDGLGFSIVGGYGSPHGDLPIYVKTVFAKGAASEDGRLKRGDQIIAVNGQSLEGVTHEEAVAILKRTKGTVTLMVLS
UniProt O75391: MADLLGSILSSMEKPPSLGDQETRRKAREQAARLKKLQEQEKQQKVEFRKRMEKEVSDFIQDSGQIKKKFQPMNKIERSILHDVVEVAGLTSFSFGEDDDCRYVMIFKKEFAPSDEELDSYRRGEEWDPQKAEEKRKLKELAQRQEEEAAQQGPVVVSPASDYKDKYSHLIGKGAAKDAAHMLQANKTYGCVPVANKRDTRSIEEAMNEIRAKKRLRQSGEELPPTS
UniProt O95260: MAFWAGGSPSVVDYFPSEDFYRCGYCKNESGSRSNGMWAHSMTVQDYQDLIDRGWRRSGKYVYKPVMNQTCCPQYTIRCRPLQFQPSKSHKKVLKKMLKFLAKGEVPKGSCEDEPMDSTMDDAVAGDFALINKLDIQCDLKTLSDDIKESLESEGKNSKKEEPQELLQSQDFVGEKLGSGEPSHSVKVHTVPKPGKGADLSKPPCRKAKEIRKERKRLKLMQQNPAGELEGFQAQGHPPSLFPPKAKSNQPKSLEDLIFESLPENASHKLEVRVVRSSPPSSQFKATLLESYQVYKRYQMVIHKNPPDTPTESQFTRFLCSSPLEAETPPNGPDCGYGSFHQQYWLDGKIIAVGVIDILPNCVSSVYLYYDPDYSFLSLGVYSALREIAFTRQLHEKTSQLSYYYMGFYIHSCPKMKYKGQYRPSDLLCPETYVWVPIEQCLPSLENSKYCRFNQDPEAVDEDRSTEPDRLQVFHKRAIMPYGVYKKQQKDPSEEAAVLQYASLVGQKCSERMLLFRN
UniProt O75431: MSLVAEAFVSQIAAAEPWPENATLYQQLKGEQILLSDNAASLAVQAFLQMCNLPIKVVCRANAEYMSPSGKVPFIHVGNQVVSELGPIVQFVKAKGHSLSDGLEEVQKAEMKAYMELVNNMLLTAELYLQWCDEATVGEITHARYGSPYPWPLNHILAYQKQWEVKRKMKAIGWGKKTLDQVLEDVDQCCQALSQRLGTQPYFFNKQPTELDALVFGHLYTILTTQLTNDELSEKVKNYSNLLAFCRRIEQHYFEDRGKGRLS
UniProt O75475: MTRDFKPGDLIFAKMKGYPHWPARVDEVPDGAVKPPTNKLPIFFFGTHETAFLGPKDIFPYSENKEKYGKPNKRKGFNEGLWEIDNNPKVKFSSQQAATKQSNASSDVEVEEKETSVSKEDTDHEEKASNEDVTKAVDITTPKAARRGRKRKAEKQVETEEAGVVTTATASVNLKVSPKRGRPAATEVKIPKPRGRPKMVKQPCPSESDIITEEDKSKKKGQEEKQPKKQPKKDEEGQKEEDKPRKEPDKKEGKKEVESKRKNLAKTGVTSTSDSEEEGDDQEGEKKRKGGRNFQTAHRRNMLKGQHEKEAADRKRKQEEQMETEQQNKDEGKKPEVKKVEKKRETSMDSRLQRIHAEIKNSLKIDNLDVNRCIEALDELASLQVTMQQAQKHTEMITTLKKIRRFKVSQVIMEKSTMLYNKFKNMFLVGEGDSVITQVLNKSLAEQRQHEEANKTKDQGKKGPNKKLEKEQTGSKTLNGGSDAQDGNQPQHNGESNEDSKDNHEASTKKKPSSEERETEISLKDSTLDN
UniProt O94761: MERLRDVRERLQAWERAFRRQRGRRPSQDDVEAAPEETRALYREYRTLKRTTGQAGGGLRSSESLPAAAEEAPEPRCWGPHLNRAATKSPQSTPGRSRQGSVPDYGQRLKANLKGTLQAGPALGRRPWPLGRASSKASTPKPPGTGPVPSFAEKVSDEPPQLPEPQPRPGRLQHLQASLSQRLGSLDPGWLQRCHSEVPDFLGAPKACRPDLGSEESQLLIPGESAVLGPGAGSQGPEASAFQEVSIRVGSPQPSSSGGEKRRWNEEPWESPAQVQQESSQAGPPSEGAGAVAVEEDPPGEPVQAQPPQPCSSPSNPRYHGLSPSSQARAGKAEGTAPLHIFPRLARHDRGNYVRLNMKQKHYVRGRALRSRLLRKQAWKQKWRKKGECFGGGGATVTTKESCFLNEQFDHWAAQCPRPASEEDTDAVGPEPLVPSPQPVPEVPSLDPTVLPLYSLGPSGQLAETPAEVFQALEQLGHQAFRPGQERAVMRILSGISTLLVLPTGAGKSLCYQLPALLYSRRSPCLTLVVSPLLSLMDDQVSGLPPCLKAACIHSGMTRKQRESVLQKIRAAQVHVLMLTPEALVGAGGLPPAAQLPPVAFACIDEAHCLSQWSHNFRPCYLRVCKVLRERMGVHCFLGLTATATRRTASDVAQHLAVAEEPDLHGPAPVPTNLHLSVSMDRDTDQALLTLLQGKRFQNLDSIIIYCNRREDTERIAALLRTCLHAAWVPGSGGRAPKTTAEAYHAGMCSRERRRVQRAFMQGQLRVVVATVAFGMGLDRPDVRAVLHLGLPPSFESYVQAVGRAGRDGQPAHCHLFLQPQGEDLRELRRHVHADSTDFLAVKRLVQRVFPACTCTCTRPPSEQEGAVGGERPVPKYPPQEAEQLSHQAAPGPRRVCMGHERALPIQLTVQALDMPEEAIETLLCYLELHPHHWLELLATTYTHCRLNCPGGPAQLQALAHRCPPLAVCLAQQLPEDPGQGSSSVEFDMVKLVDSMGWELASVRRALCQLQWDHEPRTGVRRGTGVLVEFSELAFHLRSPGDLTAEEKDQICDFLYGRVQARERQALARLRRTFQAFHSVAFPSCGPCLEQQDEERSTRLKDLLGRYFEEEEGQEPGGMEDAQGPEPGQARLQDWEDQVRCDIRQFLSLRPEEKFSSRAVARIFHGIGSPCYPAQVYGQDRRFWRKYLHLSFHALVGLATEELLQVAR
UniProt O95707: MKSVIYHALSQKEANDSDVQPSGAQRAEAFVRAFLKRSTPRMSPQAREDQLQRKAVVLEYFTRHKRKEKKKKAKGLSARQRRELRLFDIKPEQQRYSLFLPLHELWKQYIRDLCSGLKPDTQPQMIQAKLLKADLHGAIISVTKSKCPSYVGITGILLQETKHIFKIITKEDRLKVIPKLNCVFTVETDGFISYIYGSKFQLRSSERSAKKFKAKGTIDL
UniProt O75874, whole entry: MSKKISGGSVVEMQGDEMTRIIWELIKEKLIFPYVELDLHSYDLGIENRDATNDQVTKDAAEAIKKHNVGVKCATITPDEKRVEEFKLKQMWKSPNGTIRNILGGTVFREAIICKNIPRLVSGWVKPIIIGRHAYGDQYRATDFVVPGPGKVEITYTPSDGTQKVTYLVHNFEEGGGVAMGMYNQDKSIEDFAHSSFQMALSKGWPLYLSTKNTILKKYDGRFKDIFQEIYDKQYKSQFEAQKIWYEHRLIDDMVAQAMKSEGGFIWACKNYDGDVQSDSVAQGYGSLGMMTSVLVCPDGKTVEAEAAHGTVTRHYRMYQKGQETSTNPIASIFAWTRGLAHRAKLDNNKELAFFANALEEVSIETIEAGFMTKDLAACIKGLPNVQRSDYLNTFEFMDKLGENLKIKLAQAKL
UniProt O95273: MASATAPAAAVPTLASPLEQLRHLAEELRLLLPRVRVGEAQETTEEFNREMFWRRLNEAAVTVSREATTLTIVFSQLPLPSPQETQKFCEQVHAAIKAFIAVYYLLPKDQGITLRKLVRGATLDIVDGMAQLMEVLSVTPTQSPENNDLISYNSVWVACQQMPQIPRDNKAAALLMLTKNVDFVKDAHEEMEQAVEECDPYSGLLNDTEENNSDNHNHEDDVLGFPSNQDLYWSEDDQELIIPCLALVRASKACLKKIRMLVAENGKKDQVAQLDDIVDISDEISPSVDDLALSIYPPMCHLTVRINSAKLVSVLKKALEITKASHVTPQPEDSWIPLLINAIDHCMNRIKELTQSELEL
UniProt O95619, whole entry: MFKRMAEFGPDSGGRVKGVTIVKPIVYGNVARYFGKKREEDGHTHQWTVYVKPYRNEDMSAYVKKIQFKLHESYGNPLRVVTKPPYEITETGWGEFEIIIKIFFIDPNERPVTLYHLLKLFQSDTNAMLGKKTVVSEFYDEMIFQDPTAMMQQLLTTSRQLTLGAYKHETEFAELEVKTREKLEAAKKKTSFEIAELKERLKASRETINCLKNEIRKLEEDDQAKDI

Compound: CN[C@@H]1C[C@H]2O[C@@](C)([C@@H]1OC)n1c3ccccc3c3c4c(c5c6ccccc6n2c5c31)C(=O)NC4 [staurosporine]
Assay: log2 fold change of tryptic peptide abundance, ligand vs vehicle (limited proteolysis) (log2 ratio); higher = more trypsin-susceptible (destabilized)
Conditions: ligand concentration: 20 uM; sample: K562 cleared lysate; digestion: 4 min, 22 C (HT-PELSA RT4min, Orbitrap Astral)

**Q.** For “MPDZ (peptide sequence: ISLGQQSGR, peptide start residue: 1099) (UniProt O75970)”, which log2 fold change is on record?
**A.** -0.707

**Q.** How did the log2 fold change turn out when “SPAG7 (peptide sequence: MEKEVSDFIQDSGQIK, peptide start residue: 52) (UniProt O75391)” was run?
**A.** 0.659

**Q.** How did the log2 fold change turn out when “ATE1 (peptide sequence: GADLSKPPCR, peptide start residue: 197) (UniProt O95260)” was run?
**A.** 0.285

**Q.** Which log2 fold change does the source give for “MTX2 (peptide sequence: RIEQHYFEDR, peptide start residue: 248) (UniProt O75431)” here?
**A.** -0.0764

**Q.** “PSIP1 (peptide sequence: GFNEGLWEIDNNPK, peptide start residue: 76) (UniProt O75475)” was tested. Which log2 fold change did it give?
**A.** -0.349

**Q.** With “RECQL4 (peptide sequence: AACIHSGMTR, peptide start residue: 550) (UniProt O94761)” as the target, how does the log2 fold change read?
**A.** 0.611

**Q.** “POP4 (peptide sequence: LFDIKPEQQR, peptide start residue: 86) (UniProt O95707)” was tested. Which log2 fold change did it give?
**A.** 0.483

**Q.** “IDH1 (peptide sequence: DATNDQVTKDAAEAIKK, peptide start residue: 50) (UniProt O75874)” was tested. Which log2 fold change did it give?
**A.** 0.206

**Q.** For “CCNDBP1 (peptide sequence: AFIAVYYLLPK, peptide start residue: 98) (UniProt O95273)”, which log2 fold change is on record?
**A.** -0.147

**Q.** With “YEATS4 (peptide sequence: GVTIVKPIVYGNVAR, peptide start residue: 18) (UniProt O95619)” as the target, how does the log2 fold change read?
**A.** -0.18
